# From publication doi:10.1101/2022.10.24.513562
# Amino acid sequences for entries named in this document (tags omitted).
# UniProt Q14157: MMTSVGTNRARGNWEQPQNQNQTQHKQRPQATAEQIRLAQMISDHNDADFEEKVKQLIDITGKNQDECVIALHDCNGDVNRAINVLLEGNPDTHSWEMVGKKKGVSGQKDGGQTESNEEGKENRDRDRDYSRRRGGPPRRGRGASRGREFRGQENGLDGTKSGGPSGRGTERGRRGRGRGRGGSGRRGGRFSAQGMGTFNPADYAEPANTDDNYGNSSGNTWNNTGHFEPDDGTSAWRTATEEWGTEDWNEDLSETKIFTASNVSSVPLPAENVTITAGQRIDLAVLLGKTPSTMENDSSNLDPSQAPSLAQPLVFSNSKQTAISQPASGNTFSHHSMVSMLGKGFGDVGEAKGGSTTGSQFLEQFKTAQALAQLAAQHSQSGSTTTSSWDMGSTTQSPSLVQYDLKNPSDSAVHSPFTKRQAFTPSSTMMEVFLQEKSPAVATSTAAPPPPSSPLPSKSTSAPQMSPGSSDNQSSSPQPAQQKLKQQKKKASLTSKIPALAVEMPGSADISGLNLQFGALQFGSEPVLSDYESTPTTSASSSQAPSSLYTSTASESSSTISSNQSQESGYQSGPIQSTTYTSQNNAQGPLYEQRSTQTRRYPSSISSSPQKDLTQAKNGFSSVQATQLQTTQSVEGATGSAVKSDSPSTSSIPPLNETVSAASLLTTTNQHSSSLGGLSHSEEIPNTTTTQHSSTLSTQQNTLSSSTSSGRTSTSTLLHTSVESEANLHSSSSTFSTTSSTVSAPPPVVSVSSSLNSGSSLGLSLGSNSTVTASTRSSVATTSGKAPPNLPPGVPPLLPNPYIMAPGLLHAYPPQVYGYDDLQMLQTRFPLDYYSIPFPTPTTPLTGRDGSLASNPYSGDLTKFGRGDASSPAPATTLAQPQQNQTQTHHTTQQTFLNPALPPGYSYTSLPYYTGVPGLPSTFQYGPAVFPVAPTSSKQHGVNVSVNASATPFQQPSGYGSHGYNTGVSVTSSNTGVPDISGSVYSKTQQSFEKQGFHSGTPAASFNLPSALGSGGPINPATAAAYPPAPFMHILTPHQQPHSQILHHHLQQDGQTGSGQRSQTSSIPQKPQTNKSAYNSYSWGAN
# UniProt Q96GD4: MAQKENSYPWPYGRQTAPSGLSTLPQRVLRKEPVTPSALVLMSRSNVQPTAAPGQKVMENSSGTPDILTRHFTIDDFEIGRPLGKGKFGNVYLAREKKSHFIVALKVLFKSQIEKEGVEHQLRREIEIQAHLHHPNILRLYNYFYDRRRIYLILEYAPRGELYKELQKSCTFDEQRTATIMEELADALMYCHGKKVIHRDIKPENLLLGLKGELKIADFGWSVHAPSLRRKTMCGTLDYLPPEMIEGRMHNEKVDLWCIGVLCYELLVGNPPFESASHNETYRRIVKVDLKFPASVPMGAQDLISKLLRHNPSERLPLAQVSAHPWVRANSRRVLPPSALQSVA
# UniProt P53350: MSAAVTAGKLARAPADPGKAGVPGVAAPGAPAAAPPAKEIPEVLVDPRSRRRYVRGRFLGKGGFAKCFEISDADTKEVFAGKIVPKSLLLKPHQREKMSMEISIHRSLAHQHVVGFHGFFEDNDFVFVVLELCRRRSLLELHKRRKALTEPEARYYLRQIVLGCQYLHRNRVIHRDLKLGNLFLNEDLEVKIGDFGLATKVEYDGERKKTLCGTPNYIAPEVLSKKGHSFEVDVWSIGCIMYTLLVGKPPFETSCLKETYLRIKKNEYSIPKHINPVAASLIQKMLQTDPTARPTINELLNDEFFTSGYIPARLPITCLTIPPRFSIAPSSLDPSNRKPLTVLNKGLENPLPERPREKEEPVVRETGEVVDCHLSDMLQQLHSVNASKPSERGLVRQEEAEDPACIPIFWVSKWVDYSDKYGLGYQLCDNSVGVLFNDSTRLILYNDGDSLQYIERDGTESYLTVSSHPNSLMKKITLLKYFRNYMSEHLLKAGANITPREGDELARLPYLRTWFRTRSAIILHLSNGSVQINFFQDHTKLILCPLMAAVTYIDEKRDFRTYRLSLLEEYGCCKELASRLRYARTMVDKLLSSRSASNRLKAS
# No constants are given. Whether binding was seen depends on the method and setting. Binding seen in cells or lysates may run through a third protein. Some entries that bind do so weakly or less than the wild type.
# Target: Ubiquitin-Binding Protein 2-Like (UBAP2L) (human (endogenous in HeLa)) (UniProt Q14157)
# Test: co-IP
row,binding,Molecule
1,no binding,Aurora B (AurB) (from UniProt Q96GD4 1-344)
2,binds,Polo-like kinase 1 (PLK1) (from UniProt P53350 1-603)
3,binds,"Kelch-like protein 22 (KLHL22) (protein, UniProt Q53GT1 1-634) MAEEQEFTQLCKLPAQPSHPHCVNNTYRSAQHSQALLRGLLALRDSGILFDVVLVVEGRHIEAHRILLAASCDYFRGMFAGGLKEMEQEEVLIHGVSYNAMCQILHFIYTSELELSLSNVQETLVAACQLQIPEIIHFCCDFLMSWVDEENILDVYRLAELFDLSRLTEQLDTYILKNFVAFSRTDKYRQLPLEKVYSLLSSNRLEVSCETEVYEGALLYHYSLEQVQADQISLHEPPKLLETVRFPLMEAEVLQRLHDKLDPSPLRDTVASALMYHRNESLQPSLQSPQTELRSDFQCVVGFGGIHSTPSTVLSDQAKYLNPLLGEWKHFTASLAPRMSNQGIAVLNNFVYLIGGDNNVQGFRAESRCWRYDPRHNRWFQIQSLQQEHADLSVCVVGRYIYAVAGRDYHNDLNAVERYDPATNSWAYVAPLKREVYAHAGATLEGKMYITCGRRGEDYLKETHCYDPGSNTWHTLADGPVRRAWHGMATLLNKLYVIGGSNNDAGYRRDVHQVACYSCTSGQWSSVCPLPAGHGEPGIAVLDNRIYVLGGRSHNRGSRTGYVHIYDVEKDCWEEGPQLDNSISGLAACVLTLPRSLLLEPPRGTPDRSQADPDFASEVMSVSDWEEFDNSSED"
